Values quoted from earlier work, collected in patent publication US20190359769A1, “PHARMACEUTICAL AGENT FOR IRON CHELATING” (Johannes Gutenberg-Universität Mainz, priority 2017, published 2019).
At least one compound was matched to its structure with a doubt left.

Conditions: relative to DFO

O=C(O)c1ccc(-n2nc(-c3ccccc3O)nc2-c2ccccc2O)cc1 [DFX, Deferasirox]
iron excretion, times higher than with DFO: about 5 times
